According to patent US20020090373A1, “ADAMTS polypeptides, nucleic acids encoding them, and uses thereof” (priority 2000, published 2002):
For at least one compound, name, drawing or mass did not settle the structure.

Test system: ADAMTS-SI expression in chondrocytes
Assay: Semi-quantitative PCR of ADAMTS-SI expression in chondrocytes from osteoarthritic cartilage
Format: cell-based, human
Settings: chondrocytes of osteoarthritis patients, FIG. 5

CC1=C(/C=C/C(C)=C/C=C/C(C)=C/C(=O)O)C(C)(C)CCC1 [retinoic acid]
ADAMTS-SI PCR product (~400 nucleotides) versus mock treated: upregulated
